In article PMC7054742:
Results are given in words; binding and its absence hold for the method and conditions named. In cells and extracts the contact can be indirect. Binding calls can cover weak binding; strength is not graded here.

Legend:
[1] = target: 3xFLAG-tagged full-length NKRF (784 amino acids) (human); assay: co-IP; U-2 OS cells transiently transfected with N-terminally FLAG-tagged short, middle or full-length NKRF; cell extracts immunoprecipitated with anti-FLAG antibody (IgG as negative control); blot for NKRF and XRN2
[2] = target: NF-κB repressing factor (NKRF), endogenous full-length protein (human (endogenous in U-2 OS)); assay: co-IP; endogenous NKRF immunoprecipitated with anti-NKRF antibody (control IgG) from U-2 OS nuclear lysate in L200 buffer (50 mM Tris-HCl pH 7.4, 1% Triton X-100, 150 mM NaCl), 2 h at 4°C; cells untreated or treated with CX-5461, lysates untreated or treated with RNase or DNase; blot for XRN2

- binding [1]: binds
- binding [2]: binds
B1: 5′–3′ exonuclease XRN2 (enzyme, UniProt Q9H0D6 1-950)
chain: MGVPAFFRWLSRKYPSIIVNCVEEKPKECNGVKIPVDASKPNPNDVEFDNLYLDMNGIIHPCTHPEDKPAPKNEDEMMVAIFEYIDRLFSIVRPRRLLYMAIDGVAPRAKMNQQRSRRFRASKEGMEAAVEKQRVREEILAKGGFLPPEEIKERFDSNCITPGTEFMDNLAKCLRYYIADRLNNDPGWKNLTVILSDASAPGEGEHKIMDYIRRQRAQPNHDPNTHHCLCGADADLIMLGLATHEPNFTIIREEFKPNKPKPCGLCNQFGHEVKDCEGLPREKKGKHDELADSLPCAEGEFIFLRLNVLREYLERELTMASLPFTFDVERSIDDWVFMCFFVGNDFLPHLPSLEIRENAIDRLVNIYKNVVHKTGGYLTESGYVNLQRVQMIMLAVGEVEDSIFKKRKDDEDSFRRRQKEKRKRMKRDQPAFTPSGILTPHALGSRNSPGSQVASNPRQAAYEMRMQNNSSPSISPNTSFTSDGSPSPLGGIKRKAEDSDSEPEPEDNVRLWEAGWKQRYYKNKFDVDAADEKFRRKVVQSYVEGLCWVLRYYYQGCASWKWYYPFHYAPFASDFEGIADMPSDFEKGTKPFKPLEQLMGVFPAASGNFLPPSWRKLMSDPDSSIIDFYPEDFAIDLNGKKYAWQGVALLPFVDERRLRAALEEVYPDLTPEETRRNSLGGDVLFVGKHHPLHDFILELYQTGSTEPVEVPPELCHGIQGKFSLDEEAILPDQIVCSPVPMLRDLTQNTVVSINFKDPQFAEDYIFKAVMLPGARKPAAVLKPSDWEKSSNGRQWKPQLGFNRDRRPVHLDQAAFRTLGHVMPRGSGTGIYSNAAPPPVTYQGNLYRPLLRGQAQIPKLMSNMRPQDSWRGPPPLFQQQRFDRGVGAEPLLPWNRMLQTQNAAFQPNQYQMLAGPGGYPPRRDDRGGRQGYPREGRKYPLPPPSGRYNWN
